# Results: PubChem BioAssay AID493014 (National Center for Advancing Translational Sciences (NCATS), 2011)
# This is one part of the list. Shown are side measurements of this screen, not its main read-out; they come without a call. Compounds called inactive in the main read-out are mostly missing here. Words in brackets tell the shape of the fitted curve; partial curves, single points and poor fits give uncertain potencies.
# Assay: qHTS Assay to Find Inhibitors of Chronic Active B-Cell Receptor Signaling
# Conditions: ABC-DLBCL IkBa-CBG/CBR reporter, luminescence ratio (green luciferase fused to IkBa over red control in TMD8 lymphoma cells), 4 h
# How it was run: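 TMD8 human ABC-DLBCL cells with doxycycline-inducible IκBα–green luciferase fusion and unfused red luciferase, in 0.5% FBS medium; compounds up to 46 uM, 4 h at 37C. Green/red luminescence ratio, filter-overlap corrected, fitted to concentration-response curves.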
# [1] = measured here: CBR red luminescence, cell number
# [2] = measured here: IkBa-CBG green luminescence
Structure (SMILES),AC50 [1],AC50 [2]
CCOCCCNc1ccc(-c2ccccc2)nn1,"29.1 µM [falling, single point]",
Cn1c(=O)c2c(nc(N3CCc4ccccc4C3)n2Cc2ccc(Br)cc2)n(C)c1=O,"5.17 µM [rising, partial curve, poor fit]",
Cc1ccc(C(=O)Nc2nc(-c3ccc([N+](=O)[O-])cc3)cs2)o1,"1.46 µM [rising, partial curve, poor fit]",
Cc1ccc(-c2nnc(OCC3CCCO3)c3ccccc23)cc1 (stereo not given),"2 µM [rising, partial curve, poor fit]",
N#Cc1ccccc1Cn1cc(/C=C/[N+](=O)[O-])c2ccccc21,"16.4 µM [falling, partial curve]",
COC(=O)c1ccc(C(NC(=O)OCc2ccccc2)/C(F)=C/[C@@H](C)C(=O)NCc2ccc(OC)c(OC)c2)cc1 (stereo not given in full),"16.4 µM [rising, single point]",
COc1cccc(Nc2ncccc2C(=O)Nc2ccccc2)c1,"28.2 µM [falling, single point]",
Cc1ccc(C(=O)N/C(=C/c2ccco2)C(=O)NCCc2c[nH]c3ccccc23)cc1C,"35.5 µM [falling, single point]",
Cc1ccc2nc(Nc3ccccc3O)nc(-c3ccccc3)c2c1,"7.08 µM [falling, partial curve, poor fit]",
Oc1ccc(N=Nc2ccc3c(c2)OCCO3)c(O)c1,"10 µM [falling, single point]",
Cc1cccc(C(=O)N/N=C/c2coc3ccccc3c2=O)c1,"6.31 µM [falling, partial curve, poor fit]",
CCC(=O)Nc1nc(C)c(-c2csc(Nc3ccc(S(=O)(=O)Nc4cc(C)on4)cc3)n2)s1,"7.31 µM [falling, partial curve, poor fit]",
COc1ccc(NC(=O)NCCN2CCN(c3ccc(C)cc3)CC2)c(Cl)c1,"5.62 µM [rising, full curve, poor fit]",
Cc1ccccc1-n1c(SCc2ccc(Cl)cc2)nc2[nH]ncc2c1=O,"20 µM [falling, single point]",
C=CCn1c(SCCNC(C)=O)nc2cc(-c3ccccc3)sc2c1=O,"1.12 µM [rising, full curve, poor fit]",
O=C(O)CSc1ccc(NC(=O)Nc2ccccc2F)cc1,"25.1 µM [falling, partial curve]",
Cc1ccc(N2C(=O)C(CC(=O)Nc3cccc(F)c3)N(C3CC3)C2=O)cc1 (stereo not given),"35.5 µM [rising, single point]",
CC(=O)c1cccc(NC(=O)C2CCCN2S(=O)(=O)c2cccc3cccnc23)c1 (stereo not given),"8.2 µM [rising, partial curve]",
O=C(COC(=O)C1CCC1)Nc1ccc(Oc2ccccc2)cc1,"4.61 µM [rising, full curve, poor fit]",
Cc1ccc2nc3c(cc2c1)c(NC(=O)c1cccnc1)nn3C,"2.91 µM [rising, single point]",
CCOC(=O)c1cccnc1SCC(=O)Nc1ccc(C)cc1C,"12.6 µM [rising, single point]",
CCOc1ccc(NC(=O)Cn2nnc(-c3ccccc3NC(=O)c3cccs3)n2)cc1,"20.6 µM [rising, single point]",

# Two entries drawn at random from those above, as already listed:
Structure (SMILES),AC50 [1],AC50 [2]
Cc1ccc(C(=O)N/C(=C/c2ccco2)C(=O)NCCc2c[nH]c3ccccc23)cc1C,"35.5 µM [falling, single point]",
Cn1c(=O)c2c(nc(N3CCc4ccccc4C3)n2Cc2ccc(Br)cc2)n(C)c1=O,"5.17 µM [rising, partial curve, poor fit]",

# (more compounds)

Structure (SMILES),AC50 [1],AC50 [2]
Oc1ccc(N=Nc2ccccc2)cc1,"0.708 µM [rising, full curve, poor fit]",
Cc1ccc(NC(=O)CSc2nnc(-c3ccco3)c(-c3ccco3)n2)cc1,"35.5 µM [rising, single point]","22.4 µM [falling, single point]"
CC(C)(C)c1ccc(C(=O)Nc2ccc(NC(=O)C(=O)O)cc2)o1,"11.2 µM [rising, partial curve, poor fit]",
CCOC(=O)N1CCN(c2c(F)cc3[nH]c(=S)[nH]c3c2Br)CC1,,"20.6 µM [falling, partial curve, poor fit]"
CCOc1ccc(/C=N/Nc2nc(=O)[nH]nc2C)cc1OC,"14.1 µM [rising, partial curve]",
CSc1ccc(/C=C/C(=O)c2ccc(O)cc2)cc1,"8.2 µM [falling, partial curve]",
Cc1ccc(C)n1-c1c(C(=O)NN)cnn1-c1ccccc1,"12.6 µM [rising, single point]",
Cc1ccc2nc(NC(=O)C3CCN(S(=O)(=O)c4cnc[nH]4)CC3)sc2c1,"23.1 µM [falling, partial curve]",
O=C(Nc1ccc2oc(-c3ccccc3F)nc2c1)c1ncn[nH]1,"8.2 µM [rising, single point]",
CCCc1cc(-c2nc(-c3ccc(Br)cc3)cs2)ccn1,"7.31 µM [rising, partial curve, poor fit]",
C/C(=N\NC(=O)CCC(=O)Nc1ccccc1)c1cccs1,"18.4 µM [rising, partial curve, poor fit]",
Cc1ncc(CN2CCCC(C(=O)Nc3ccc(-c4ccco4)cc3)C2)cn1 (stereo not given),"1 µM [falling, full curve]",
Cc1ccc(C)c(N2CCN(CCCNC(=O)Cn3cc4c(n3)CCCCC4)CC2)c1,"23.1 µM [falling, single point]",
CCCCn1c(SCC(=O)NC(C)CC)nc2ccc(N3CCOCC3)cc2c1=O (stereo not given),"15.8 µM [falling, single point]",
CCOC(=O)/C(N=Nc1c(C)n(C)n(-c2ccccc2)c1=O)=C(\C)O,"0.231 µM [rising, full curve, poor fit]",
CC1CCCCC1NC(=O)CN1c2cccc3cccc(c23)S1(=O)=O (stereo not given),"2.59 µM [rising, partial curve, poor fit]",
CCOC(=O)C(C)Oc1cccc2c(=O)n(CC(=O)NCCc3ccc(OC)c(OC)c3)ccc12 (stereo not given),"23.1 µM [rising, single point]",
Cc1cc(C(=O)N/N=C/C=C/c2ccc([N+](=O)[O-])cc2)n[nH]1,"35.5 µM [falling, single point]",
O=S(=O)(Nc1nc2ccc(S(=O)(=O)N3CCCCC3)cc2s1)c1ccccc1,"1.84 µM [falling, partial curve]",
COc1ccc(-c2csc(N(C)C(=O)c3cccs3)n2)cc1,"0.794 µM [rising, partial curve, poor fit]",
Cc1cc(C)c(S(=O)(=O)/N=C2/C=C(SCC(=O)O)C(=O)c3ccccc32)cc1C,"20 µM [falling, single point]",
CCCCNC(=O)c1cccc(C(=O)NCCCC)c1,"18.4 µM [rising, single point]",

Structure (SMILES),AC50 [1],AC50 [2]
COC1(C2=NCCN2)COc2ccccc2O1 (stereo not given),"20.6 µM [rising, single point]",
O=c1c2ccccc2nc(-c2ccc(Cl)c(Cl)c2)n1O,"16.4 µM [falling, partial curve, poor fit]",
CC(=O)Nc1ccc(C(=O)CSc2nccc(=O)[nH]2)cc1,"10 µM [falling, partial curve, poor fit]",
CC1CCCCN1CCNC(=O)c1ccc2c(c1)N(Cc1ccccc1F)C(=O)c1ccccc1S2=O (stereo not given),"11.2 µM [falling, partial curve, poor fit]",
COc1ccc(/C=N/Nc2nc(Nc3ccccc3)nc(N3CCCC3)n2)cc1,"10 µM [falling, partial curve]",
CC1=CC=CC2=NC(=O)CC(C)(C(=O)N(CC(=O)NC3CCCC3)c3ccccc3C)N12 (stereo not given),"1.03 µM [falling, full curve, poor fit]",
COc1cccc(NC(=O)c2cccc(OC)c2OC)c1,"6.51 µM [rising, single point]",
COC(=O)C(NC(=O)CCc1c(C)nc2c(c(C)nn2-c2ccccc2)c1C)C(C)C (stereo not given),"35.5 µM [falling, single point]",
Cc1ccc(C(=O)NNC(=O)c2ccccc2OCc2c(C)noc2C)cc1,"4.61 µM [rising, partial curve]",
C=CCN(CC=C)S(=O)(=O)c1ccc(NC(=S)NC(=O)/C=C/c2ccccc2)cc1,"0.708 µM [rising, full curve]",
CC(C)Cc1csc(NC(=O)c2ccc(Br)cc2)c1C(=O)O,"0.316 µM [falling, full curve]",
NS(=O)(=O)c1ccc(CCNC(=O)C2CCC(CNS(=O)(=O)c3ccc(Br)s3)CC2)cc1 (stereo not given),"14.1 µM [rising, single point]",
CC[C@@]12C(=O)N(c3cccc(Cl)c3)C(=O)N1[C@H](c1cccc(C)c1)[C@@H]1C(=O)N(Cc3ccccc3)C(=O)[C@@H]12,"13 µM [falling, partial curve, poor fit]",
Cn1c(C(=O)NCc2ccccn2)cc2c(=O)n(C)c3ccccc3c21,"6.51 µM [falling, single point]",
COc1ccc(Cc2nc3ccc(C(=O)NCCc4ccccn4)cc3o2)cc1OC,"22.4 µM [falling, partial curve]",
CCOc1cccc(OCCOCCn2cnc3ccccc3c2=O)c1,"0.00461 µM [falling, full curve, poor fit]",
O=C(CSc1nc2ccccc2s1)Nc1ccc(N2CCOCC2)c(Cl)c1,"18.4 µM [rising, single point]",
CC(=O)c1c(C)[nH]c(C(=O)NCCc2ccccc2)c1C,"14.1 µM [falling, single point]",
Cc1cc2n(n1)SC(Nc1ccccc1)N2 (stereo not given),"35.5 µM [falling, single point]",
Cc1ccccc1-c1nnc(-c2ccccc2)o1,"25.9 µM [falling, partial curve, poor fit]",
